Experimental data as given in the supplement of paper PMC10849652.
Some of the results follow. Residues, ends and D or L forms follow the SMILES beside them. *: point of attachment. Cbz = O=C(OCc1ccccc1)*

The chains behind the UniProt entries cited, without tags or fusion partners. Where a name states a change or a piece, a line headed by the entry shows the natural chain unless it says otherwise.
UniProt Q9NZ72: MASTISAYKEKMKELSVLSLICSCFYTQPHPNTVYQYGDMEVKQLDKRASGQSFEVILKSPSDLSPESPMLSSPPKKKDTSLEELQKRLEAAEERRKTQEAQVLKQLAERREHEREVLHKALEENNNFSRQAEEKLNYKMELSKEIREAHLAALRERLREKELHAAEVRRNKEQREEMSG
UniProt O00186: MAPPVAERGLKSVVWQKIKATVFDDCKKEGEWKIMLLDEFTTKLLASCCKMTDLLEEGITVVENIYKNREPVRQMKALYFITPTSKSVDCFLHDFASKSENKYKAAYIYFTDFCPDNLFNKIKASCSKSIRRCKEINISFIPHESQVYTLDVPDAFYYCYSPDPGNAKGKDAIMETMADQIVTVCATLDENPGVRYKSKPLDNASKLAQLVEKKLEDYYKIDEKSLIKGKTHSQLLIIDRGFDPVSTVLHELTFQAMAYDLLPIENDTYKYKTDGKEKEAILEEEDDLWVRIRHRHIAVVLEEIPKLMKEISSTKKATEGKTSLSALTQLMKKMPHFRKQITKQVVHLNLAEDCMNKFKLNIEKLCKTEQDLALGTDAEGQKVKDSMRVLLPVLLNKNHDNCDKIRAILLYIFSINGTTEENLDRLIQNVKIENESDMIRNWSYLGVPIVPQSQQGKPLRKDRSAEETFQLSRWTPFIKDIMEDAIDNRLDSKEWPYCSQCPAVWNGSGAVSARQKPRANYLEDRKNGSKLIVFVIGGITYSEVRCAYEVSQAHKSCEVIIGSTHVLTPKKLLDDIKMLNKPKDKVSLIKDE
UniProt Q5VSL9: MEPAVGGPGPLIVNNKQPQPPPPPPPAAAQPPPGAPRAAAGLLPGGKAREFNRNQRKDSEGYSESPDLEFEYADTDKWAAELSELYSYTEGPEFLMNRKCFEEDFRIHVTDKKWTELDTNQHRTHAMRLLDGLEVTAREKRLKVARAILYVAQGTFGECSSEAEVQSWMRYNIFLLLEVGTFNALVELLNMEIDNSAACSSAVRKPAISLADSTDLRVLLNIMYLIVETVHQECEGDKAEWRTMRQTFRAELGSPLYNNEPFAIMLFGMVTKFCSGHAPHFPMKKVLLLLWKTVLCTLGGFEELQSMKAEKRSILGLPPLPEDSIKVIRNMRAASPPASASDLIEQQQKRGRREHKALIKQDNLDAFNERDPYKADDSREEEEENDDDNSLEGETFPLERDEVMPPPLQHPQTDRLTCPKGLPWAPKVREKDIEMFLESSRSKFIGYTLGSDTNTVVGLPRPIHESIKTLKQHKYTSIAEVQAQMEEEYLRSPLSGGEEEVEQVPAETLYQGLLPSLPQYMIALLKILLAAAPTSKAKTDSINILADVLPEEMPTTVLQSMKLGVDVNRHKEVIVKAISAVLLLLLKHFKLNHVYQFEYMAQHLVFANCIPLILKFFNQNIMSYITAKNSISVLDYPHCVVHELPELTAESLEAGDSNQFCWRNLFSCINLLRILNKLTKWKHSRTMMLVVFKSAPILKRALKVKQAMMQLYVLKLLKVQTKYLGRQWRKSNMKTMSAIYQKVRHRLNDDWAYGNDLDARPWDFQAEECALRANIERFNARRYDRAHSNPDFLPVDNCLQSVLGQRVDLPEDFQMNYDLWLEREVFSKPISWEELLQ
UniProt Q8NBJ7: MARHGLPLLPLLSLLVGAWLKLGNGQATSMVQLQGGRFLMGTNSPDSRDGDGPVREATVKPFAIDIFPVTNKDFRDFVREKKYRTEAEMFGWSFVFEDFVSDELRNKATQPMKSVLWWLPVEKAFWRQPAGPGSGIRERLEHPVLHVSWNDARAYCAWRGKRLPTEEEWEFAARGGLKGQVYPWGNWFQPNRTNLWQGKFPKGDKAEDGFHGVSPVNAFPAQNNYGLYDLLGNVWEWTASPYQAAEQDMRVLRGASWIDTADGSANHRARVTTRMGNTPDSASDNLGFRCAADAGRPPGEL
UniProt Q9UH65: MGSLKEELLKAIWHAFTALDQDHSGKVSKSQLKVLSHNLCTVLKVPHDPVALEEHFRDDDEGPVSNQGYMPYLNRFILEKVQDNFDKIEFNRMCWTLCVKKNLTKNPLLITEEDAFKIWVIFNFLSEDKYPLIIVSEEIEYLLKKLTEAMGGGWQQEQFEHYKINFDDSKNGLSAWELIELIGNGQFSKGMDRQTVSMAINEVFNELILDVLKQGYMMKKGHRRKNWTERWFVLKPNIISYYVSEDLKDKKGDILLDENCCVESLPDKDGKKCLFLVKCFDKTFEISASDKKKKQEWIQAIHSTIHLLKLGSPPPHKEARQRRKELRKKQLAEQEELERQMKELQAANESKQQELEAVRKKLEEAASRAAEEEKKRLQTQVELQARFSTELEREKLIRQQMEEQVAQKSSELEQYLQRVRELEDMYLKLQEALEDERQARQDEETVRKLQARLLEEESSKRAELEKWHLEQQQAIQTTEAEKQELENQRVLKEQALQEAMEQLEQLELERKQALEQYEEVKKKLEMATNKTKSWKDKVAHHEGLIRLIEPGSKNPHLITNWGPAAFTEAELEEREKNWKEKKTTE

Tests used:
Experiment in all cases: log2 fold change, soluble protein after heating vs DMSO (PISA); higher = thermal stabilisation; K562 cells, 10 uM, 30 min; active = over 0.2 and 3.5 SD of the protein, either way, in both replicates (recomputed)
erlotinib = compound: C#Cc1cccc(Nc2ncnc3cc(OCCOC)c(OCCOC)cc23)c1 [erlotinib]
Method in brief: (§1)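 K562 cells at 2×10^6 cells/mL were exposed to 10 μM compound for 30 min, then aliquots were heated for 3 min across 48°C-58°C, pooled, and extracted in PBS containing 0.5% NP-40 at 4°C. The supernatant after 21,000xg for 90 min was taken as soluble protein and measured by TMTpro 16plex LC-MS/MS with channel sums equalised. Thermal stability is reported relative to control samples, with values from duplicates. Fold changes are given on a log2 scale.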

[1] = compound: C/C(=N\NC(=O)C1=CC(=CC=C1)S(=O)(=O)N2CCOCC2)/C3=C(C=CC(=C3)Cl)O
Method in brief: as §1

[2] = compound: C1=CC(=C(C=C1Cl)C2=NC3=NC=CN=C3C(=N2)NC4=CC=NC=C4)F
Method in brief: as §1

[3] = compound: C1=CC(=CC=C1C2=NC3=C(N2)C=C(C=C3)C(=O)N)OC4=CC=C(C=C4)Cl
Method in brief: as §1

[4] = compound: C1=CC2=C(C=CC(=C2)/C=C\3/C(=O)NC(=NCC4=CC=CS4)S3)N=C1
Method in brief: as §1

[5] = compound: C1=CC2=NC=CN=C2C=C1/C=C/3\C(=O)NC(=O)S3
Method in brief: as §1

[6] = compound: C1=CC=C(C=C1)C2=NC(=C(N2)C3=CC=NC=C3)C4=CC(=C(C=C4)Cl)O
Method in brief: as §1

[7] = compound: C1=CC=C2C(=C1)C3=NNC4=CC=CC(=C43)C2=O
Method in brief: as §1

[8] = compound: C1CCN(C1)C(=O)NC2=CC=CC(=C2)NC3=NC=C(C(=N3)NCCC4=CN=CN4)Br
Method in brief: as §1

[9] = compound: C1CN(CCC1(CC2=CC=C(C=C2)Cl)N)C3=NC=NC4=C3C=CN4
Method in brief: as §1

IRAK-1-4 Inhibitor I = compound: C1COCCN1CCN2C3=CC=CC=C3N=C2NC(=O)C4=CC(=CC=C4)[N+](=O)[O-] [IRAK-1-4 Inhibitor I]
Method in brief: as §1

ibrutinib = compound: C=CC(=O)N1CCC[C@@H](n2nc(-c3ccc(Oc4ccccc4)cc3)c3c(N)ncnc32)C1 [ibrutinib]
Method in brief: as §1

[10] = compound: CC(=O)c1cnc2ccc(-c3cc(Cl)c(O)c(Cl)c3)nc2c1N[C@H]1CC[C@H](CN(C)C)CC1
Method in brief: as §1

ralimetinib = compound: CC(C)(C)Cn1c(N)nc2ccc(-c3[nH]c(C(C)(C)C)nc3-c3ccc(F)cc3)nc21 [ralimetinib]
Method in brief: as §1

[11] = compound: CC(C)(O)CC(=O)NCCn1ccc2ncnc(Nc3ccc(Oc4cccc(C(F)(F)F)c4)c(Cl)c3)c21
Method in brief: as §1

[12] = compound: CC(C)C1=C2N=C(C=C(N2N=C1)NCC3=CC=CC=C3)NCCCCCCN
Method in brief: as §1

[13] = compound: CC(C)C[C@@H](C=O)NC(=O)[C@H](CC(C)C)NC(=O)[C@H](CC(C)C)NC(=O)OCc1ccccc1
Method in brief: as §1

pinometostat = compound: CC(C)N(C[C@H]1O[C@@H](n2cnc3c(N)ncnc32)[C@H](O)[C@@H]1O)[C@H]1C[C@@H](CCc2nc3cc(C(C)(C)C)ccc3[nH]2)C1 [pinometostat]
Method in brief: as §1

[14] = compound: CC1=C(C(CC(=O)N1)C2=CC=C(C=C2)C(F)(F)F)C(=O)NC3=C(C=C4C(=C3)C=NN4)F
Method in brief: as §1

[15] = compound: CC1=C(C2=C(C=C1)C(=O)C3=CC=CC=C3N2CCCN)C
Method in brief: as §1

Measured: log2 fold change

TACO1 (UniProt Q9BSH4)
inactive: erlotinib 0.188 | [1] 0.177 | [2] 0.116 | [3] -0.074 | [4] 0.169 | [5] -0.038 | [6] 0.251 | [7] -0.007 | [8] -0.132 | [9] -0.016 | IRAK-1-4 Inhibitor I -0.187 | ibrutinib -0.11 | [10] -0.153 | ralimetinib 0.186 | [11] -0.406 | [12] -0.087 | [13] -0.238 | pinometostat -0.211 | [14] -0.057 | [15] 0.124

STMN3 (UniProt Q9NZ72)
inactive: erlotinib -0.014 | [1] 0.016 | [2] -0.066 | [3] 0 | [4] 0.002 | [5] 0.043 | [6] 0.182 | [7] -0.04 | [8] -0.02 | [9] 0.007 | IRAK-1-4 Inhibitor I 0.011 | ibrutinib -0.027 | [10] -0.016 | ralimetinib 0.115 | [11] -0.07 | [12] 0.067 | [13] 0.045 | pinometostat 0.019 | [14] 0.027 | [15] -0.127

STXBP3 (UniProt O00186)
inactive: erlotinib 0.078 | [1] 0.069 | [2] -0.044 | [3] -0.049 | [4] 0.018 | [5] 0.021 | [6] 0.015 | [7] 0.01 | [8] -0.027 | [9] -0.058 | IRAK-1-4 Inhibitor I -0.083 | ibrutinib -0.017 | [10] -0.046 | ralimetinib 0.114 | [11] -0.22 | [12] -0.271 | [13] 0.088 | pinometostat 0.039 | [14] 0.015 | [15] -0.012

STRIP1 (UniProt Q5VSL9)
inactive: erlotinib 0.039 | [1] 0.039 | [2] 0.09 | [3] -0.011 | [4] -0.015 | [5] 0.04 | [6] 0.02 | [7] -0.01 | [8] -0.069 | [9] 0.049 | IRAK-1-4 Inhibitor I -0.005 | ibrutinib -0.067 | [10] 0.023 | ralimetinib 0.067 | [11] -0.094 | [12] -0.007 | [13] -0.004 | pinometostat -0.008 | [14] -0.008 | [15] 0.012

SUPT6H (UniProt Q7KZ85)
inactive: erlotinib 0.117 | [1] 0.049 | [2] 0.127 | [3] -0.057 | [4] 0.155 | [5] -0.033 | [6] 0.071 | [7] -0.118 | [8] -0.227 | [9] -0.063 | IRAK-1-4 Inhibitor I -0.353 | ibrutinib -0.081 | [10] 0.166 | ralimetinib 0.042 | [11] -0.116 | [12] 0 | [13] -0.062 | pinometostat -0.162 | [14] 0.099 | [15] 0.315

SUMF2 (UniProt Q8NBJ7)
inactive: erlotinib 0.005 | [1] -0.026 | [2] -0.068 | [3] -0.014 | [4] -0.028 | [5] 0.012 | [6] -0.033 | [7] 0.038 | [8] 0.031 | [9] -0.005 | IRAK-1-4 Inhibitor I 0.032 | ibrutinib -0.014 | [10] 0.001 | ralimetinib -0.042 | [11] 0.044 | [12] -0.062 | [13] 0.05 | pinometostat 0.032 | [14] 0.014 | [15] -0.073

SUB1 (UniProt P53999)
inactive: erlotinib 0.029 | [1] -0.033 | [2] -0.011 | [3] -0.04 | [4] -0.003 | [5] 0.001 | [6] -0.065 | [7] 0.053 | [8] 0.017 | [9] 0.065 | IRAK-1-4 Inhibitor I 0.098 | ibrutinib -0.009 | [10] -0.046 | ralimetinib -0.027 | [11] 0.038 | [12] 0.039 | [13] 0.004 | pinometostat 0.018 | [14] 0.009 | [15] 0.019

SWAP70 (UniProt Q9UH65)
inactive: erlotinib 0.022 | [1] 0.083 | [2] 0.013 | [3] 0.011 | [4] 0.007 | [5] 0.066 | [6] 0 | [7] -0.024 | [8] -0.024 | [9] -0.007 | IRAK-1-4 Inhibitor I 0.006 | ibrutinib 0.033 | [10] 0.018 | ralimetinib 0.048 | [11] 0.035 | [12] -0.004 | [13] -0.03 | pinometostat -0.051 | [14] -0.019 | [15] -0.046
